US20140170136A1
Results are given in words; binding and its absence hold for the method and conditions named. Some entries that bind do so weakly or less than the wild type.

Legend:
equine NGF (equine) [1] = target: equine NGF (equine) (UniProt F6SVV7); assay: ELISA (FIG. 1)
Protein A [2] = target: Protein A (UniProt P38507); assay: Protein A affinity chromatography; eluted fractions quantitated by NGF ELISA
equine NGF (equine) [3] = target: equine NGF (equine) (UniProt F6SVV7); assay: ELISA: CHO supernatant on NGF, goat anti-equine IgG-HRP, OD450, against mock supernatant
Protein A [4] = target: Protein A (UniProt P38507); assay: Protein A affinity chromatography of CHO supernatant; antibody in fractions measured by quantitative ELISA
Protein A [5] = target: Protein A (UniProt P38507); assay: Protein A column, fractions shown by Western blot with anti-equine polyclonal antibody-HRP and Coomassie SDS-PAGE

- binding (equine NGF (equine) [1]): binds
- binding (Protein A [2]): binds
- binding (equine NGF (equine) [3]): binds
- binding (Protein A [4]): binds
- binding (Protein A [5]): binds
B1: eqN-HC2+eqN-kLC-1 (equinised αD11 anti-NGF antibody comprising the eqN-kLC-1 light chain and the eqN-HC2 (IgG2) heavy chain) (antibody)
heavy: QVQLKESGPGLVNPSQTLSLTCTVSGFSLTNNNVNWVRQAPGKGLEWVGGVWAGGATDYNSALKSRATITRDTSKSQVFLQMNSLTSEDTAVYYCARDGGYSSSTLYAMDAWGQGILVTVSSASTTAPKYFQLTPSCGITSDATVALGCLVSDYYPEPVTVSWNSGALTSGVHTFPSVLQSSGLYALSSMVTVPASTWTSETYICNVAHPASSTKVDKRIPPCVLSAEGVIPIPSVPKPQCPPYTHSKFLGGPSVFIFPPNPKDALMISRTPVVTCVVVNLSDQYPDVQFSWYVDNTEVHSAITKQREAQFNSTYRVVSVLPIQHQDWLSGKEFKCSVTNVGVPQPISRAISRGKGPSRVPQVYVLPPHPDELAKSKVSVTCLVKDFYPPDISVEWQSNRWPELEGKYSTTPAQLDGDGSYFLYSKLSLETSRWQQVESFTCAVMHEALHNHFTKTDISESLGK
light: DIVMTQSPASLSASLGETVTIECRASEDIYNALAWYQQKPGQSPKLLIYNTDTLHTGVPSRFSGSGSGTDYSLTINSLQSEDVASYFCQHYFHYPRTFGQGTKLELKRDDAKPSAFIFPPSSEELSSGSASVVCLVYGFYPSGATINWKVDGLAKTSSFHSSLTEQDSKDNTYSLSSTLTLPKADYEAHNVYACEVSHKTLSSPLVKSFKRQDC
